In US20060270622A1:
Results are given in words; binding and its absence hold for the method and conditions named. Some binding calls cover weakened binding; strength is not graded here.

Amino acid sequences for entries named in this document (tags omitted). A change or cut given only in a name is not applied to a line headed by its entry. Residues count along the entry.
UniProt P02748, residues 22-559: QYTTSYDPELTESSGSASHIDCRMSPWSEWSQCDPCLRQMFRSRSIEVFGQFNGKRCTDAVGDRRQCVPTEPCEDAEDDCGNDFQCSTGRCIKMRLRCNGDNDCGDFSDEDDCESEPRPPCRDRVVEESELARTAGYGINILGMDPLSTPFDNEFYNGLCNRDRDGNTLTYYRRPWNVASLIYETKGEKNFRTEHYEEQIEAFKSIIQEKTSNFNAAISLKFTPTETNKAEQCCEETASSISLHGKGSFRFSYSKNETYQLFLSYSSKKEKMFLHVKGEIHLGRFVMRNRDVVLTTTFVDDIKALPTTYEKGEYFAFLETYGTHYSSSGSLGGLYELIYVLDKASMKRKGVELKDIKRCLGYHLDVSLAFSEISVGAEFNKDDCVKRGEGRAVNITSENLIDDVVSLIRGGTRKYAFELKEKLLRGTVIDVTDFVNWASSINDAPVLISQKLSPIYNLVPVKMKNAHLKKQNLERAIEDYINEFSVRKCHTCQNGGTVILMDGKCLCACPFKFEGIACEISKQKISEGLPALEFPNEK
UniProt P07357: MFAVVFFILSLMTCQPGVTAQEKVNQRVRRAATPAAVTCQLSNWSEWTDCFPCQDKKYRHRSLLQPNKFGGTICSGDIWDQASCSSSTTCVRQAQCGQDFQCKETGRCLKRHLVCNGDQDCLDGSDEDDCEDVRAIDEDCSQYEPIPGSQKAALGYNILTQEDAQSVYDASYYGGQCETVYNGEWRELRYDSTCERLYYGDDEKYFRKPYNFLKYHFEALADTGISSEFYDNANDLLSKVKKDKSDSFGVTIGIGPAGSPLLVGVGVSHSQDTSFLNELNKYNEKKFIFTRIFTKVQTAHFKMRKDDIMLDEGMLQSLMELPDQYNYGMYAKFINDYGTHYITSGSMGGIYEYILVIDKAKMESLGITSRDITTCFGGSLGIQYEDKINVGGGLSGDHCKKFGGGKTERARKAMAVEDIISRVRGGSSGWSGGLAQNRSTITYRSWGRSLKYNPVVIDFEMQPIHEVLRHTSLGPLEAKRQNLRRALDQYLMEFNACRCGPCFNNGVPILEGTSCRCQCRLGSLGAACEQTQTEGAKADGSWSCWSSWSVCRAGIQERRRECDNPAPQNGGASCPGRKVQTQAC
UniProt P07358: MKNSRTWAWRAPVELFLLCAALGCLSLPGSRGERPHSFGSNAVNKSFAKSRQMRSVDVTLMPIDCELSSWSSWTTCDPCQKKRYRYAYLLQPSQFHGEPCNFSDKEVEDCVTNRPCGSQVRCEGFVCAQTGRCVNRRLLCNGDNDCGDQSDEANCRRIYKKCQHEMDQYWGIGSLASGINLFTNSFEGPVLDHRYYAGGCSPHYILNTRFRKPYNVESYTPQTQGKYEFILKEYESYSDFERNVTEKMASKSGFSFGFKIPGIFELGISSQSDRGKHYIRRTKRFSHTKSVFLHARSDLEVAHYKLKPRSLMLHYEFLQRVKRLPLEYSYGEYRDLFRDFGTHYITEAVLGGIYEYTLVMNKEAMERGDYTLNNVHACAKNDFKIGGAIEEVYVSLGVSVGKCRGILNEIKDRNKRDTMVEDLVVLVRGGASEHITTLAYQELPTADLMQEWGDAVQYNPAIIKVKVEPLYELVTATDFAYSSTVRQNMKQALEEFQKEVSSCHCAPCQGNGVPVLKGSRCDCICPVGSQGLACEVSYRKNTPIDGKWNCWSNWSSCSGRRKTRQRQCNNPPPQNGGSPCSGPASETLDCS
UniProt P07360: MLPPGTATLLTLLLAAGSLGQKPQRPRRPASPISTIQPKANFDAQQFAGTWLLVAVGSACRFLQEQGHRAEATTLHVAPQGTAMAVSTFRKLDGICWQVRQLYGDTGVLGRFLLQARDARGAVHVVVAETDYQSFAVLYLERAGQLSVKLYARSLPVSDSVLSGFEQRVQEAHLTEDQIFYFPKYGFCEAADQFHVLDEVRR
UniProt P38646: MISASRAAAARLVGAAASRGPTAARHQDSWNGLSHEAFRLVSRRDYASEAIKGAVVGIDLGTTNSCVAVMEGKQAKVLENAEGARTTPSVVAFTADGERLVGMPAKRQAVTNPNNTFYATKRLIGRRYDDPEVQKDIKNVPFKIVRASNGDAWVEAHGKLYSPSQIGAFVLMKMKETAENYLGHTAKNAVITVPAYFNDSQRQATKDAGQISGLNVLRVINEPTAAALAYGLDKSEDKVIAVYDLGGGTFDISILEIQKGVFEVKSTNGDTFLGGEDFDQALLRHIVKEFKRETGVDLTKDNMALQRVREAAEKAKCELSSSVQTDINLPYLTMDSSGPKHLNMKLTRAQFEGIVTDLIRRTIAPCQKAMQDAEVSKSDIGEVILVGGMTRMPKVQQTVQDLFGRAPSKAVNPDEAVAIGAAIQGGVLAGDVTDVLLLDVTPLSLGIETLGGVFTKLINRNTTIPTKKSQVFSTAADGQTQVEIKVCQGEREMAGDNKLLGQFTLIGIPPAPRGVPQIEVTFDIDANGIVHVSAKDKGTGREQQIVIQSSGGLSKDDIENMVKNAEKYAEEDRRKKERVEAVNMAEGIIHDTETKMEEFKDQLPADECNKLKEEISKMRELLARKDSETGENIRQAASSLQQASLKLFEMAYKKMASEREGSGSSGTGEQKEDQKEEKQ

Tests used:
[1] = molecular target: purified human complement C9 (human) (UniProt P02748); test: blot overlay: C9 on nitrocellulose after reducing SDS-PAGE, incubated with K562 cell lysate, detected with anti-mortalin antibody
[2] = molecular target: purified human complement C9 (human) (UniProt P02748); test: ELISA, C9 attached to microtiter plates (data not shown)
[3] = molecular target: human C8 (human) (UniProt P07357+P07358+P07360); test: ELISA, C8 attached to microtiter plates (data not shown)
[4] = molecular target: purified human complement C9 (human) (UniProt P02748); test: blot overlay (FIG. 7 legend), K562 cell lysate on blotted C9, anti-mortalin detection
[5] = molecular target: purified human complement C9 (human) (UniProt P02748); test: blot overlay with K562 cell lysate pre-mixed with soluble C9 as competitor

Measured: binding

mortalin (mot-2, GRP75; gene: HSPA9B; GenBank Identifier gi:24234688) (from UniProt P38646 47-679)
binds: all assays above
